Assay results as given in paper PMC4395342.
No constants are given. Whether binding was seen depends on the method and setting. Binding seen in cells or lysates may run through a third protein. Some results given as binding are weak or reduced against the parent protein; the word gives no strength.

Amino acid sequences for entries named in this document (tags omitted). Residues count along the entry.
UniProt Q9NTX7, residues 92-168: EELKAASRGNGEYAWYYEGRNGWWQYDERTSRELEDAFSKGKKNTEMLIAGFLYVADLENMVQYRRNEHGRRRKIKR

Biological target: GST fused to the WWE domain of the E3 ubiquitin ligase RNF146 (UniProt Q9NTX7)
Test: pull-down; GST-WWE resins (15-20 μg) incubated 6-14 hr with soluble cell lysates supplemented with 0.1% SDS, ADP-ribose and ADP-HPD; cells treated with 3-17 mM glucose for 1 or 7 hr; precipitates blotted for TNKS; only the target purified

B1: PARsylated tankyrase (TNKS), endogenous in MIN6 cells (protein, UniProt Q6PFX9 1-1320)
chain: MAASRRSQHHHHHHQQQLQPAPGASAPPPPPPPPLSPGLAPGPTPASPTAGGLAPFASPRHGLALPEGDGSRDPPDRPRSPDPVDGAVCTVAAPAAVPAASAAVGVAPTPAGGGGGGGNNSASSASSPTSSSSSSPSSPGSSLAESPEAAGVGSTATLGAGAAGLGPGVPAVSGALRELLEACRNGDVSRVKRLVDAANVNAKDMAGRKSSPLHFAAGFGRKDVVEHLLQMGANVHARDDGGLIPLHNACSFGHAEVVSLLLCQGADPNARDNWNYTPLHEAAIKGKIDVCIVLLQHGADPNIRNTDGKSALDLADPSAKAVLTGEYKKDELLEAARSGNEEKLMALLTPLNVNCHASDGRKSTPLHLAAGYNRVRIVQLLLQHGADVHAKDKGGLVPLHNACSYGHYEVTELLLKHGACVNAMDLWQFTPLHEAASKNRVEVCSLLLSHGADPTLVNCHGKSAVDMAPTPELRERLTYEFKGHSLLQAAREADLAKVKKTLALEIINFKQPQSHETALHCAVASLHPKRKQVAELLLRKGANVNEKNKDFMTPLHVAAERAHNDVMEVLHKHGAKMNALDSLGQTALHRAALAGHLQTCRLLLSYGSDPSIISLQGFTAAQMGNEAVQQILSESTPMRTSDVDYRLLEASKAGDLETVKQLCSPQNVNCRDLEGRHSTPLHFAAGYNRVSVVEYLLHHGADVHAKDKGGLVPLHNACSYGHYEVAELLVRHGASVNVADLWKFTPLHEAAAKGKYEICKLLLKHGADPTKKNRDGNTPLDLVKEGDTDIQDLLRGDAALLDAAKKGCLARVQKLCTPENINCRDTQGRNSTPLHLAAGYNNLEVAEYLLEHGADVNAQDKGGLIPLHNAASYGHVDIAALLIKYNTCVNATDKWAFTPLHEAAQKGRTQLCALLLAHGADPTMKNQEGQTPLDLATADDIRALLIDAMPPEALPTCFKPQATVVSASLISPASTPSCLSAASSIDNLTGPLTDLAVGGASNAGDGAAGAERKEGEVAGLDMNISQFLKSLGLEHLRDIFETEQITLDVLADMGHEELKEIGINAYGHRHKLIKGVERLLGGQQGTNPYLTFHCVNQGTILLDLAPEDKEYQSVEEEMQSTIREHRDGGNAGGIFNRYNVIRIQKVVNKKLRERFCHRQKEVSEENHNHHNERMLFHGSPFINAIIHKGFDERHAYIGGMFGAGIYFAENSSKSNQYVYGIGGGTGCPTHKDRSCYICHRQMLFCRVTLGKSFLQFSTMKMAHAPPGHHSVIGRPSVNGLAYAEYVIYRGEQAYPEYLITYQIMKPEAPSQTATAAEQKT
modifications: poly-ADP-ribosylated (autoPARsylation), sites not stated
  binding: binds
